From publication PMC7819943, “Rice protein-binding microarrays: a tool to detect cis-acting elements near promoter regions in rice”
Some of the results follow.

The chains behind the UniProt entries cited, without tags or fusion partners.
UniProt Q0JBA9, entry or part of it: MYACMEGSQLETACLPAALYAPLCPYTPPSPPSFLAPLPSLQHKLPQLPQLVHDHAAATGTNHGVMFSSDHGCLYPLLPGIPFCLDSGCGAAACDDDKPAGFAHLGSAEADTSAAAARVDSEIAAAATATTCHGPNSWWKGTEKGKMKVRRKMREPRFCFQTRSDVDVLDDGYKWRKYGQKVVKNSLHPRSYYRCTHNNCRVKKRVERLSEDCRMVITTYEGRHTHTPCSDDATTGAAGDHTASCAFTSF

What follows are sequences tested against OsWRKY34 (Oryza sativa, UniProt Q0JBA9 1-250) (assay: protein-binding microarray (RPBM); PBS, 2% BSA, 51.3 ng/ul salmon testes DNA, 50 uM zinc acetate, 200 nM TF, 25 C, 1 h; high values mean tight binding). Settings: protein: recombinant; tags: N-terminal polyhistidine and DsRed monomer fusion (pET32a); label: CyDye5-dUTP incorporated in the synthesized complementary strand; 3' TTTTT single-stranded linker to array surface; dsDNA, one strand shown.
Procedure, shortened: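 The binding signal is fluorescence intensity per feature, in arbitrary units, read on an Axon 4000B scanner. Polyhistidine- and DsRed-tagged transcription factors (N-terminal fusions) from E. coli BL21-CodonPlus were purified on Ni–NTA and applied at 200 nM for 1 h at 25 °C to a double-stranded, BSA-blocked custom Agilent array in buffer with 50 µM zinc acetate.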
In the case of “CCAGTCCACCACATACTACAGTGTCAGCGTACGCGTCGTACGGAGTCACCTAGTGCAG”, the binding signal is reported as 8330 fluorescence intensity (a.u.). In the case of “TATTTGCATGGCTTTGACCATTTGAGGGTAGACATTTTTGCGGAGTCACCTAGTGCAG”, the binding signal is reported as 8980 fluorescence intensity (a.u.). “ATGCGTTAATAGCCCATCTCGTTTTGCGTATCTTCTTAATCGGAGTCACCTAGTGCAG” was tested, and the binding signal was 9540 fluorescence intensity (a.u.). In the case of “TGTGCGTTCAATTTGATTTTCCTTCCAACATGTTTATTATCGGAGTCACCTAGTGCAG”, the binding signal is reported as 12200 fluorescence intensity (a.u.). For “GATGCTCACATGTCAGTGGTCAACGGCAGGCAAGCTGCTGCGGAGTCACCTAGTGCAG”, the binding signal was 8810 fluorescence intensity (a.u.). For “GTGTGTGTGCATGTGCGTATAAGGCATGCTTAATTTATGTCGGAGTCACCTAGTGCAG”, the binding signal was 9000 fluorescence intensity (a.u.). “ATAGTTCGCTACTTTGCTTTTTTTTTATCTTTTTAAAATACGGAGTCACCTAGTGCAG” was tested, and the binding signal was 11200 fluorescence intensity (a.u.). For “AGGCCAATCGCTTCACTCCCGTTAACTCACGATCCACTTCCGGAGTCACCTAGTGCAG”, the binding signal was 8810 fluorescence intensity (a.u.). With “ATGCATTCATTTTTGTTTTTACTTTTATTATTTCTTTTGTCGGAGTCACCTAGTGCAG” the binding signal was 10000 fluorescence intensity (a.u.). “ATTTAACTAGCGCTATACATTTTGTGTAATTTTACATACACGGAGTCACCTAGTGCAG” was tested, and the binding signal was 8230 fluorescence intensity (a.u.). In the case of “TTGATTCTGTTTTCGTGTCCGGGGTTTTCGATTCTGAAAACGGAGTCACCTAGTGCAG”, the binding signal is reported as 16100 fluorescence intensity (a.u.). In the case of “CTTAGACCAACTCGGCCATCTCAACTTTTTGCTCTGTCATCGGAGTCACCTAGTGCAG”, the binding signal is reported as 9000 fluorescence intensity (a.u.). “TTTGGCTTTTTCTAGCTAGTGCTCACCTCCAGCTATATATCGGAGTCACCTAGTGCAG” was tested, and the binding signal was 9220 fluorescence intensity (a.u.). With “TGGCAGTTCGATCGATCTTATCTCGTTTTTCTTCTCCGAACGGAGTCACCTAGTGCAG” the binding signal was 8690 fluorescence intensity (a.u.). For “GGTGGGCATTATCCCAAAGAGAGAAAACAAGAAGTATCATCGGAGTCACCTAGTGCAG”, the binding signal was 8230 fluorescence intensity (a.u.). For “TCAACACAGCAACGTTTCACTTTCATATCATCTGATTATTCGGAGTCACCTAGTGCAG”, the binding signal was 8470 fluorescence intensity (a.u.). For “TCCACCCACGCCACATCGCTCCTTTGCCCTGCGCCGCCCACGGAGTCACCTAGTGCAG”, the binding signal was 8900 fluorescence intensity (a.u.). “TTGGTTTTAATCGGTTTTGCTCGGTAACCGTGGTCAGGGGCGGAGTCACCTAGTGCAG” was tested, and the binding signal was 9700 fluorescence intensity (a.u.). In the case of “AGATCCTGTCCATGTTCATCATCTACATGACTACAATACCCGGAGTCACCTAGTGCAG”, the binding signal is reported as 9430 fluorescence intensity (a.u.). With “AGTGGTTGGATAGATGTATTTGTCACGTTGATGTCTGGAGCGGAGTCACCTAGTGCAG” the binding signal was 10500 fluorescence intensity (a.u.). “TCCTCCTCTTCGCCTCGTCTCTCTGCCCTGCCTCGTGCGCCGGAGTCACCTAGTGCAG” was tested, and the binding signal was 8880 fluorescence intensity (a.u.). “TATGTTATTTTGTATGTCTTGTATTGGTATCATATATTTACGGAGTCACCTAGTGCAG” was tested, and the binding signal was 12100 fluorescence intensity (a.u.). With “AAATTTTAAGGCTGCATTTTGAGTGTCCCTTGTTGCTTTCCGGAGTCACCTAGTGCAG” the binding signal was 8190 fluorescence intensity (a.u.).
